Among all 400,000 compounds or so, about 13,000 (3.2%) were called active. This list was built around the results that the source calls inconclusive (neither active nor inactive); the mix of calls is not that of the screen. Calls come from the whole dose curve; as a rule, active = well fitted cell-killing curve with a large enough effect; inconclusive = small, poorly fitted or top-dose-only effect, or effect the other way; inactive = flat fitted curve, though single readings scatter. A potency beside an inconclusive call is a rough fit, not a confirmed value.
Experiment: qHTS assay for MDR1-selective chemotherapeutics: Primary screen using the drug-selected MDR subline cells KB-V1; note: nearly all actives have a fitted effect of over 60% in size
Details: KB-V1 MDR cells viability, CellTiter-Glo, 72 h; activity change, negative = cytotoxicity: at 46.1 µM (top of the series)
In short: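 Cytotoxicity via CellTiter-Glo luminescence after 72 h compound exposure at 37 degrees C. Cells: drug-selected KB-V1 line, DMEM phenol-red free plus 10% FBS. Compounds tested at multiple concentrations; normalized data fitted to concentration-effect curves.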
% is set by controls: 0 for no effect and ±100 for the full control effect; potency is the fitted concentration of half-maximal effect.

| Structure (SMILES) | Potency | activity change, negative = cytotoxicity |
| --- | --- | --- |
| CCOC(=O)N1CCN(CC(=O)Nc2c(C(=O)OC)[nH]c3ccccc23)CC1 | inconclusive: 20.6 µM [cytotoxic, partial curve] |  |
| Cc1cc(N2CCN(C(=O)c3[nH]c(C(F)(F)F)nc3-c3ccccc3)CC2)c2ccccc2n1 | inconclusive: 29.1 µM [cytotoxic, single point] |  |
| CCc1ccc(C(O)(CC)C(CN2CCOCC2)c2ccccc2)cc1 (stereo not given) | inconclusive: 25.9 µM [cytotoxic, single point] |  |
| CCCN(CC(=O)Nc1ccccc1OC)C(=O)Cc1ccc2c(c1)CCC2 | inconclusive: 18.4 µM [cytotoxic, single point] |  |
| O=C(COC(=O)CSc1ccccc1)NNC(=O)c1ccc([N+](=O)[O-])cc1 | inconclusive: 29.1 µM [rising, single point] |  |
| CCc1cc2c(=O)n(CCCOC)c(SCC(=O)Nc3oc(C)c4c(C)n[nH]c(=O)c34)nc2s1 | inconclusive: 9.2 µM [rising, partial curve, poor fit] |  |
| COc1ccc(C)cc1NC(=O)c1nnn(Cc2cc(C)ccc2C)c1N | inactive |  |
| CC(=O)O[C@]1(C(C)=O)CC[C@H]2[C@@H]3C=C(C)C4=CC(=O)CC[C@@H]4[C@H]3CC[C@@]21C | inconclusive: 16.4 µM [cytotoxic, single point] |  |
| CCCS(=O)(=O)NC(=O)C1(C)CCN(C(=O)Cc2ccc(OC)cc2)C1 (stereo not given) | inactive |  |
| N#Cc1cc2c(=O)n3ccccc3nc2n(-c2nnc(SCc3ccccc3F)s2)c1=O | inconclusive: 18.4 µM [rising, single point] |  |
| CCc1ccc(-n2c(=O)c3c(C)c(C(=O)N(C)C)sc3n(CC(=O)NCc3ccco3)c2=O)cc1 | inconclusive: 35.5 µM [cytotoxic, single point] |  |
| CC(=O)N1CCc2cc(Br)cc(S(=O)(=O)N3CCc4ccccc43)c21 | inconclusive: 7.31 µM [cytotoxic, partial curve] |  |
| CC1=C(C(=O)Nc2ccc(C)cc2C)C(c2ccc[nH]2)n2ncnc2N1 (stereo not given) | inconclusive: 7.31 µM [rising, partial curve] |  |
| Cc1ccnc(NC(=O)c2cc3ccccc3o2)c1 | inconclusive: 23.1 µM [cytotoxic, single point] |  |
| Cn1c(N)c(C(=O)CSc2nnc(Cc3cccs3)n2C2CC2)c(=O)n(C)c1=O | inactive |  |
| CCc1ccccc1NC(=O)CSc1nnc(-c2ccncc2)o1 | inconclusive: 32.6 µM [rising, single point] |  |
| CCC1(C)SC(N)=NN1C(C)=O (stereo not given) | inactive |  |
| CCNC(=O)C1(C)CCN(C(=O)c2cc(F)ccc2C)C1 (stereo not given) | inactive |  |
| CC(=O)c1ccc(NC(=O)CN2C(=O)CCc3cc(S(=O)(=O)N4CCC(C)CC4)ccc32)cc1 | inconclusive: 29.1 µM [rising, single point] |  |
| CN(c1ccccc1)S(=O)(=O)c1cc(C(=O)N2CCN(c3ccccn3)CC2)ccc1Cl | active: 23.1 µM |  |
| Cc1nn(-c2ccccc2)c(C)c1NC(=O)COc1ccc2ccccc2c1 | active: 14.6 µM |  |
| CCCn1c(N)c(N(CCOC)C(=O)C(C)Oc2ccc(F)cc2)c(=O)[nH]c1=O (stereo not given) | inconclusive: 23.1 µM [rising, partial curve, poor fit] |  |

| Structure (SMILES) | Potency | activity change, negative = cytotoxicity |
| --- | --- | --- |
| Cc1cc(C)cc(NS(=O)(=O)c2ccc3[nH]cc(C(=O)NCc4ccco4)c(=O)c3c2)c1 | inactive |  |
| CCCCc1c(O)nc(SCC(=O)N2CCOCC2)n(-c2ccccc2C)c1=O | inconclusive: 18.4 µM [rising, single point] |  |
| CCCn1ccc2c(OCC(=O)Nc3ccc(C(F)(F)F)cc3)cccc2c1=O | inactive |  |
| O=C(NCC1CCCN1S(=O)(=O)c1cccs1)c1cccc(F)c1 (stereo not given) | inconclusive: 20.6 µM [cytotoxic, partial curve] |  |
| COC(=O)C1=C(C(=O)OC)[C@@H]2Nc3ccccc3[C@@]23C[C@@H](C(=O)OC)N(C(=O)NC2CCCCC2)C3=N1 | inactive |  |
| Cc1cc(C)n(CC(C)NC(=O)c2cc(COc3ccc(F)c(F)c3)on2)n1 (stereo not given) | inactive |  |
| CCOc1ccccc1C(=O)Nc1cc2c(cc1N1CCCCC1)n(C)c(=O)n2C | inconclusive: 16.4 µM [cytotoxic, single point] |  |
| Cc1ccc(NC(=O)CN(C)C(=O)C(C)OC(=O)c2ccccc2NCCO)cc1 (stereo not given) | inconclusive: 29.1 µM [cytotoxic, single point] |  |
| CCC(C)n1c(SCc2ccc([N+](=O)[O-])cc2)nc2ccsc2c1=O (stereo not given) | inconclusive: 32.6 µM [cytotoxic, single point] |  |
| COc1ccc(NC(=O)CSc2n[nH]c(-c3ccccc3)n2)cc1Cl | inconclusive: 29.1 µM [rising, partial curve, poor fit] |  |
| Cn1c(=O)c(C(=O)COC(=O)c2cc(C3CC3)nc3ccccc23)c(N)n(Cc2ccccc2)c1=O | inconclusive: 8.2 µM [cytotoxic, partial curve, poor fit] |  |
| CCOC(=O)C1=C(C)N=C2SC(C(=O)OC)=CC(=O)N2C1c1ccc(OC)cc1 (stereo not given) | inconclusive: 18.4 µM [cytotoxic, single point] |  |
| C[C@H](CO)N1C[C@H](C)[C@@H](CN(C)Cc2ccccc2)Oc2c(NS(=O)(=O)c3ccc(F)cc3)cccc2C1=O | inconclusive: 0.58 µM [rising, partial curve, poor fit] |  |
| CC(=O)c1ccc(-n2c(SCC(=O)c3c[nH]c4ccccc34)nc3ccccc3c2=O)cc1 | inactive |  |
| CCCCCC(=O)Cc1cc(O)cc2c1C(=O)Oc1cc(O)c(C(=O)O)c(CCCCC)c1O2 |  | inconclusive: 37.2% |
| COc1cccc(NC(=O)CN(C)CC(=O)Nc2ccc(Cl)cc2[N+](=O)[O-])c1 | inconclusive: 9.2 µM [cytotoxic, partial curve] |  |
| CC(C)Sc1nnc(NC(=O)c2ccc3c(c2)OCO3)s1 | inactive |  |
| COc1ccc(C(=O)COC(=O)c2nn(C)cc2Cl)cc1 | inconclusive: 29.1 µM [rising, single point] |  |
| O=C(COC(=O)Cc1ccc(F)cc1)NCCc1ccccc1 | inconclusive: 29.1 µM [rising, single point] |  |
| CCn1ncc(CN2CCC(Oc3cc(C(=O)NC4CC4)ccc3OC)CC2)c1C | inconclusive: 29.1 µM [rising, single point] |  |
| COc1ccc(CCNC(=O)CCN2C(=O)COc3ccc(C)cc32)cc1OC | inconclusive: 29.1 µM [cytotoxic, partial curve, poor fit] |  |
| CCC(=O)Nc1nc2nc(C)cc(=O)n2[nH]1 | inconclusive: 23.1 µM [rising, single point] |  |

An excerpt from above in order of length of the SMILES, high to low:

| Structure (SMILES) | Potency | activity change, negative = cytotoxicity |
| --- | --- | --- |
| COC(=O)C1=C(C(=O)OC)[C@@H]2Nc3ccccc3[C@@]23C[C@@H](C(=O)OC)N(C(=O)NC2CCCCC2)C3=N1 | inactive |  |
| Cn1c(=O)c(C(=O)COC(=O)c2cc(C3CC3)nc3ccccc23)c(N)n(Cc2ccccc2)c1=O | inconclusive: 8.2 µM [cytotoxic, partial curve, poor fit] |  |
| CCOc1ccccc1C(=O)Nc1cc2c(cc1N1CCCCC1)n(C)c(=O)n2C | inconclusive: 16.4 µM [cytotoxic, single point] |  |

Carrying on:

| Structure (SMILES) | Potency | activity change, negative = cytotoxicity |
| --- | --- | --- |
| CCN(CC)CCCN(C(=O)c1ccco1)c1nc(-c2ccc(Cl)cc2)cs1 | inactive |  |
| COc1ccc(NC(=O)Nc2cc(C)cc(C)c2)cn1 | inconclusive: 23.1 µM [cytotoxic, partial curve, poor fit] |  |
| O=c1[nH]c(=O)n(C2OC(CO)C(O)C2O)cc1F (stereo not given) | active: 20.6 µM |  |
| COc1ccc(-n2nc(C(=O)Nc3ccc(C)cn3)c3c4ccccc4n(C)c3c2=O)cc1Cl | inconclusive: 20.6 µM [rising, single point] |  |
| Cc1nc(C(C)NC(=O)c2ccc(OC3CCN(Cc4ccccn4)CC3)cc2)c(C)s1 (stereo not given) | inconclusive: 29.1 µM [rising, single point] |  |
| CN(C)c1nc(NCc2ccccc2)nc(N/N=C/c2ccc(Cl)cc2Cl)n1 | inactive |  |
| CCC(c1nnnn1-c1ccc2c(c1)OCCO2)N1CCN(Cc2c(F)cccc2Cl)CC1 (stereo not given) | inconclusive: 25.9 µM [cytotoxic, single point] |  |
| O=C(Nc1cccc(C(F)(F)F)c1)c1cccnc1NCCc1ccccc1 | inconclusive: 29.1 µM [cytotoxic, single point] |  |
| C/C(=N\NC(=O)c1ccccc1Br)c1ccc(N2CCOCC2)cc1 | inconclusive: 13 µM [rising, partial curve, poor fit] |  |
| CCOc1ccc(S(=O)(=O)Nc2cccc(Cl)c2)cc1 | inconclusive: 29.1 µM [cytotoxic, single point] |  |
| COc1cc(NC(=O)C2CCN(c3nnc(C)c4c(C)n(-c5ccccc5)nc34)CC2)cc(OC)c1 | inconclusive: 20.6 µM [rising, single point] |  |
| COc1ccc(C(CNC(=O)c2cccc(S(=O)(=O)Nc3ccccc3OC)c2)N2CCCC2)cc1 (stereo not given) | inactive |  |
| O=C(Nc1ccccc1)Nc1cccn(Cc2c(F)cccc2Cl)c1=O | inconclusive: 25.9 µM [cytotoxic, partial curve, poor fit] |  |
| CCn1c(O)c(/C=C2\C=NN=C2c2ccc(C)cc2)sc1=S | inactive |  |
| O=C(c1csc2c1CCCC2)N1CCN(c2ccccc2)CC1 | inconclusive: 29.1 µM [cytotoxic, single point] |  |
| O=C(N/C=N/OCc1ccc(Cl)cc1Cl)NOCc1c(Cl)cccc1Cl | inconclusive: 29.1 µM [cytotoxic, single point] |  |
| COc1ccccc1Cn1c(=O)oc2ccc(C)cc21 | inconclusive: 20.6 µM [cytotoxic, single point] |  |
| Cn1c(=O)c2c(nc(CN3CCc4ccccc4C3)n2Cc2ccc(F)cc2)n(C)c1=O | active: 9.2 µM |  |
| O=C(Cc1cn(Cc2cccc(Cl)c2)c2ccccc12)N1CCCC1 | inconclusive: 8.2 µM [cytotoxic, partial curve, poor fit] |  |
| COc1ccc(NC(=O)CSc2nnc(Cn3cnc([N+](=O)[O-])n3)n2C)cc1 | inconclusive: 29.1 µM [cytotoxic, single point] |  |
| Cc1cccc(N(C(=O)c2ccco2)C(C(=O)NC2CCCC2)c2ccco2)c1C (stereo not given) | inconclusive: 9.2 µM [cytotoxic, partial curve] |  |

2 compounds drawn at random from the list so far:

| Structure (SMILES) | Potency | activity change, negative = cytotoxicity |
| --- | --- | --- |
| CCN(CC)CCCN(C(=O)c1ccco1)c1nc(-c2ccc(Cl)cc2)cs1 | inactive |  |
| Cn1c(=O)c(C(=O)COC(=O)c2cc(C3CC3)nc3ccccc23)c(N)n(Cc2ccccc2)c1=O | inconclusive: 8.2 µM [cytotoxic, partial curve, poor fit] |  |

— PubChem BioAssay AID1347076 (National Center for Advancing Translational Sciences (NCATS), 2019)
